Results from PubChem BioAssay AID2685 (National Center for Advancing Translational Sciences (NCATS), 2010).
This is one part of the list. Shown are side measurements of this screen, not its main read-out; they come without a call. The list favours compounds with an active or inconclusive main result. The note in brackets gives the kind of curve behind each potency; many fits are weak.

Assay: qHTS Assay for Lipid Storage Modulators in Drosophila S3 Cells;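 as to cell number change: cells counted by Cell Tracker Red CMTPX staining in the red channel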
Conditions: BODIPY lipid droplet fluorescence, 18-24 h; for cell number change: measured here: cell count max response, cells fed with added oleic acid
Procedure, shortened: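 Drosophila S3 cells got compounds at several concentrations plus oleic acid (400 uM solution). Laser-scanning cytometry with 488 nm excitation read lipid droplets at 500-530 nm and cells at 575-640 nm. Percent activity was relative to 20 uM Triacsin C.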

[1] = measured here: cell number channel AC50, cells fed with added oleic acid
[2] = measured here: lipid fluorescence (Fed channel) AC50, cells fed with added oleic acid

SMILES	cell number change	AC50 [1]	AC50 [2]
O=c1c2[nH]c3ccccc3c2ncn1C1CCCCC1	-36%	23.1 µM [falling, single point]	20.6 µM [falling, single point]
O=S(=O)(c1ccccc1)c1cnn(-c2ccccc2)c1-c1ccc(F)cc1	1.12%	0.103 µM [falling, full curve, poor fit]	0.366 µM [rising, full curve, poor fit]
Cc1cc(C)n(CCCNC(=O)Cn2nnnc2CN2C[C@@H](C)O[C@@H](C)C2)n1	38.5%	1.16 µM [rising, partial curve, poor fit]	23.1 µM [rising, single point]
Cn1c(=O)oc2cc(S(=O)(=O)NCCC(=O)NCc3ccccc3Cl)ccc21	2.36%	–	29.1 µM [falling, single point]
O=C(NNc1ccccc1Cl)C(O)(c1cccc(C(F)(F)F)c1)c1cccc(C(F)(F)F)c1	-72%	2.06 µM [falling, partial curve]	1.84 µM [falling, partial curve]
CCN(CC)CCN1C(=O)C(O)=C(C(C)=O)C1c1ccccc1 (stereo unspecified)	-37.4%	0.146 µM [falling, full curve]	0.82 µM [falling, full curve]
Cc1ccc(O)c(C(=O)/C=C/c2ccc3c(c2)OCCCO3)c1	-33.1%	20.6 µM [falling, single point]	29.1 µM [rising, single point]
Cc1ccc(NC(=O)NCCN2CCCCC2)cc1	-16.3%	–	–
CCCc1[nH]n(-c2ccc([N+](=O)[O-])cc2)c(=O)c1C(C)=NCc1ccncc1	10.4%	2.91 µM [rising, single point]	–
Cc1nc(N2CCOCC2)nc(N2CCCC2)c1[N+](=O)[O-]	7.61%	–	29.1 µM [rising, single point]
CCN(CC(O)CON=C1c2ccccc2-c2ccccc21)S(=O)(=O)c1ccc(C)cc1 (stereo unspecified)	-1.47%	–	32.6 µM [falling, single point]
CCCCn1c(NC(=O)c2ccccc2)nc2ccccc21	-25.9%	–	29.1 µM [falling, single point]
Cc1ccc(NC(=O)c2ccc3[nH]c(=O)c(=O)[nH]c3c2)nc1	8.02%	–	29.1 µM [rising, single point]
CCn1ncc(N(C)N)c(Cl)c1=O	-3.73%	0.651 µM [falling, single point]	0.651 µM [falling, single point]
O=C(NCC1CCCO1)c1cccc(Br)c1 (stereo unspecified)	-7.34%	–	0.651 µM [falling, full curve]
COc1ccc(N(CC(=O)Nc2ccc3c(c2)OCO3)S(=O)(=O)c2ccc(F)cc2)cc1	12.1%	–	18.4 µM [rising, single point]
COc1ccc(C(=O)N[C@H](C(=O)N2CCN(c3ccccc3F)CC2)C(C)C)cc1	21.8%	0.103 µM [rising, full curve]	–
O=C1NC(Cc2ccccc2)c2nc3ccccc3c(=O)n2-c2ccc(Cl)cc21 (stereo unspecified)	–	–	7.31 µM [rising, partial curve]
Cc1ccc(NC(=O)Cc2nnc(SCC(=O)NC3=NCCS3)n2C)cc1	9.83%	–	18.4 µM [rising, single point]

SMILES	cell number change	AC50 [1]	AC50 [2]
Cc1cc(C)c(NC(=O)CN2C(=O)NC3(CCCCC3)C2=O)c(Cl)c1	19.7%	0.0259 µM [rising, full curve, poor fit]	–
Cc1sc(NC(=O)c2ccc(Br)s2)c(C(N)=O)c1C	-5.42%	0.146 µM [rising, full curve, poor fit]	–
Cc1cccc(C)c1N1CCN(C(=O)N2CCCCC2)CC1	-28.3%	–	0.517 µM [falling, full curve]
COc1ccc(-c2oc(=O)c3cc(OC)c(OC)cc3c2C(F)(F)F)cc1	22.6%	–	1.46 µM [rising, full curve]
CCN(C(=O)CN1c2ccccc2CC1C)c1c(N)n(Cc2ccccc2)c(=O)[nH]c1=O (stereo unspecified)	-56%	5.8 µM [falling, full curve]	20.6 µM [falling, partial curve]
CCCc1c(C(=O)N/N=C/c2cccc3ccccc23)nnn1-c1nonc1N	-5.34%	–	20.6 µM [falling, partial curve]
COc1cc(OC)cc(C(=O)NNC(=S)Nc2ccc(S(N)(=O)=O)cc2)c1	-19.3%	0.146 µM [falling, full curve, poor fit]	–
COC(=O)CC1COc2ccccc2N1C(=O)c1ccc(OC)cc1 (stereo unspecified)	–	–	13 µM [rising, partial curve]
O=C(Nc1ccc2c(c1)oc1ccccc12)c1ccc2c(c1)OCO2	-51.2%	20.6 µM [falling, partial curve]	5.17 µM [falling, full curve, poor fit]
COc1cc(OC)cc(C(=O)NC(=S)N2CCCCC2c2cccnc2)c1 (stereo unspecified)	-1.62%	–	29.1 µM [falling, single point]
Nc1c(N2CCCCC2)c(=O)[nH]c(=O)n1-c1ccccc1	-7.75%	–	29.1 µM [falling, partial curve]
CCOC(=O)C1CCN(C(=S)Nc2cccc(C)c2C)CC1	0.485%	–	29.1 µM [falling, single point]
CCC(=NCc1ccccc1)c1c(C(F)(F)F)[nH]n(-c2nc3ccccc3s2)c1=O	8.55%	–	–
CCC(C)(C(=O)NC1CCCC1)N(C(=O)CNC(C)=O)c1ccc(C)cc1 (stereo unspecified)	-8.25%	–	–
CCOc1ccccc1N1CCN(C(=O)c2cccc(S(=O)(=O)N3CCOCC3)c2)CC1	-7.41%	0.731 µM [falling, single point]	1.03 µM [rising, partial curve, poor fit]
CC(C)(C)c1ccc(C(=O)Nc2ccc(C(=O)N3CCOCC3)cc2)cc1	-8.72%	–	–
C(=C\c1ccc(/C=C/c2ccccc2)nn1)/c1ccccc1	3.64%	–	–
COC(=O)c1ccc(C(=O)OC)c(NS(C)(=O)=O)c1	6.49%	–	–

Quoted from above for reference:
SMILES	cell number change	AC50 [1]	AC50 [2]
COc1ccc(-c2oc(=O)c3cc(OC)c(OC)cc3c2C(F)(F)F)cc1	22.6%	–	1.46 µM [rising, full curve]
CCN(C(=O)CN1c2ccccc2CC1C)c1c(N)n(Cc2ccccc2)c(=O)[nH]c1=O (stereo unspecified)	-56%	5.8 µM [falling, full curve]	20.6 µM [falling, partial curve]
CCCc1c(C(=O)N/N=C/c2cccc3ccccc23)nnn1-c1nonc1N	-5.34%	–	20.6 µM [falling, partial curve]
